No constants are given. Whether binding was seen depends on the method and setting. Binding seen in cells or lysates may run through a third protein. Some binding calls cover weakened binding; strength is not graded here. For some of these results: Where a sequence is shown, tags or fusion partners need not be part of it.

By UniProt entry, the sequences of proteins in these tests, tags left out.
UniProt Q13395: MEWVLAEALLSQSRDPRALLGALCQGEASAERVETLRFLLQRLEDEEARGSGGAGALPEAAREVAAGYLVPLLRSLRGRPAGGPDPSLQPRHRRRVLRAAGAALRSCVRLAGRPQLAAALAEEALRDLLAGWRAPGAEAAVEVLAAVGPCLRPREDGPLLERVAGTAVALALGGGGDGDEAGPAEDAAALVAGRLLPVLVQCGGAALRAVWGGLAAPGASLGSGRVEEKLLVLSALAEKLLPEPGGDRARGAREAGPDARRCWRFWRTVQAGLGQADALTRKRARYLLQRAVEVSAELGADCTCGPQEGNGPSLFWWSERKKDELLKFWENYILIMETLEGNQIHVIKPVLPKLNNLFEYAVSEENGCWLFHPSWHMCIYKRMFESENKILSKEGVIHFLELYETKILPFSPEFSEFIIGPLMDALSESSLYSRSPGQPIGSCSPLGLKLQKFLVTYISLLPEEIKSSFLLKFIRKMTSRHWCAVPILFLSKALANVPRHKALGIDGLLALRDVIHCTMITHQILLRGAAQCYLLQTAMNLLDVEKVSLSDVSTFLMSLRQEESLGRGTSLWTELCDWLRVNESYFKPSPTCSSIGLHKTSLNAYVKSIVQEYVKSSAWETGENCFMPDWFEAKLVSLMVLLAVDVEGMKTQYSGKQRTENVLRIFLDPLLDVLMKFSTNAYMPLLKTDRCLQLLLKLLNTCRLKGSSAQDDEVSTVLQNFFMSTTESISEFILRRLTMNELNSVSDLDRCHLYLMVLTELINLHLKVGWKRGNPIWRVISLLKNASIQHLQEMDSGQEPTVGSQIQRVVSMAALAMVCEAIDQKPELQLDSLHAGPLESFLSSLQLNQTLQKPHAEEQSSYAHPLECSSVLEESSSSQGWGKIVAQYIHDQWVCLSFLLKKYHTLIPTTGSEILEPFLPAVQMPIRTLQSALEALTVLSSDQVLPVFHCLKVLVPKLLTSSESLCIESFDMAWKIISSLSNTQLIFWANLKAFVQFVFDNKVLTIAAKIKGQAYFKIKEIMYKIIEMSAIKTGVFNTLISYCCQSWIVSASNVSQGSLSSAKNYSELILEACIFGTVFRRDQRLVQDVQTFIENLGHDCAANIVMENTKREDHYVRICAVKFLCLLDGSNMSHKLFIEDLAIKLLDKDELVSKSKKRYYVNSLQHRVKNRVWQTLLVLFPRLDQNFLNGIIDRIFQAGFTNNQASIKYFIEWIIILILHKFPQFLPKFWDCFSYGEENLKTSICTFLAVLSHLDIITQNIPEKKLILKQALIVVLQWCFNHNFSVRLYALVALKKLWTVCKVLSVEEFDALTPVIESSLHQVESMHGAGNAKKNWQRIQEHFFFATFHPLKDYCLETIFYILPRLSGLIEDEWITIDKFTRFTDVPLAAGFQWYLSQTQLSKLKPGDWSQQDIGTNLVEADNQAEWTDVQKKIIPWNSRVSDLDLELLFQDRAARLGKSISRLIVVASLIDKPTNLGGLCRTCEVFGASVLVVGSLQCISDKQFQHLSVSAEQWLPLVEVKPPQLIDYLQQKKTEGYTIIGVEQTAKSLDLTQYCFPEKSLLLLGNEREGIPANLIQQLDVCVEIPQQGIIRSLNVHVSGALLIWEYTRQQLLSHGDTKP

What all share (assay): co-IP
In assay [1] the target is TAR (HIV-1) RNA binding protein 1 (TARBP1) with a C-terminal FLAG and HA tag (human) (UniProt Q13395).
The target of assay [2] is T1, ZBTB2 with a C-terminal FLAG and HA tag (human (cDNA from Jurkat cells)) (UniProt Q8N680).
T1 sequence: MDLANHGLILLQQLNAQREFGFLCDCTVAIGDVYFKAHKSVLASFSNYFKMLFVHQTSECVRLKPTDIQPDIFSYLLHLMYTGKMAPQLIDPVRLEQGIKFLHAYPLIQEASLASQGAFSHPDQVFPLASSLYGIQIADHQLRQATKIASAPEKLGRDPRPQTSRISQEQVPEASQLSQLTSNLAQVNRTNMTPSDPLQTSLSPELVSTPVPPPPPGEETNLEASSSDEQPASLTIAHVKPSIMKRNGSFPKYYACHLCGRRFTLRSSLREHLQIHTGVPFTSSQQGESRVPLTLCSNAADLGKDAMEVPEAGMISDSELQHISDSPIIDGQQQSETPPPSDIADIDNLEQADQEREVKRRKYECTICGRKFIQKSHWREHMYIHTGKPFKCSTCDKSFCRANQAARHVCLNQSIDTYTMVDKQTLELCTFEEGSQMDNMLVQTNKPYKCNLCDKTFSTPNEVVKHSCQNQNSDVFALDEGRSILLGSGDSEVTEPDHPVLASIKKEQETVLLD

Assay [3] deals with T2, ZNF639 with a C-terminal FLAG and HA tag (human (cDNA from Jurkat cells)) (UniProt Q9UID6).
T2 sequence: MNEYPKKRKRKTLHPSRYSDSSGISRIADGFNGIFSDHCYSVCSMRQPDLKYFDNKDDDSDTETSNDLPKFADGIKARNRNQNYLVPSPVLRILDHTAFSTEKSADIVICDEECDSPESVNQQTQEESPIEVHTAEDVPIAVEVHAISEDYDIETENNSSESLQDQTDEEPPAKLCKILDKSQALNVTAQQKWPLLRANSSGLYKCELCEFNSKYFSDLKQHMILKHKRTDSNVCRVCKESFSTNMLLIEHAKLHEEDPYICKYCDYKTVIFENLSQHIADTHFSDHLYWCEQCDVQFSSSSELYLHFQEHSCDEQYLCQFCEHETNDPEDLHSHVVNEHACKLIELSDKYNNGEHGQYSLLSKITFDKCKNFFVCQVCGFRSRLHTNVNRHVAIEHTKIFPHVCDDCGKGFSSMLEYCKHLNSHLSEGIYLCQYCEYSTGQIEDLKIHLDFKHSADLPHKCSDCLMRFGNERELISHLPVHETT

Assay [4] deals with T3, ZBTB25 with a C-terminal FLAG and HA tag (human (cDNA from Jurkat cells)) (UniProt P24278).
T3 sequence: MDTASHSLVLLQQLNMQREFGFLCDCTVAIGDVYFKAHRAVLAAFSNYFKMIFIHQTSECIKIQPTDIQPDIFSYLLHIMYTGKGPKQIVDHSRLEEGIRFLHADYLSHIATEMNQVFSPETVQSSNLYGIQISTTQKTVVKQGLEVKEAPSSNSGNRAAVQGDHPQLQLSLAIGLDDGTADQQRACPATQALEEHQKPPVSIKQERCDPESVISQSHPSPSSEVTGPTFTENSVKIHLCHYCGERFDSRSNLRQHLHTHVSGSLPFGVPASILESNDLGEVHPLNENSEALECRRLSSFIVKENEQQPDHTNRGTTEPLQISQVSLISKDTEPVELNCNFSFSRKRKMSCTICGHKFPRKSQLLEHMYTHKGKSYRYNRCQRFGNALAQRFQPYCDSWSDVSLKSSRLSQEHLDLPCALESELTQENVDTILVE

B1: ZBTB25 (protein, UniProt P24278 1-435)
chain: T3 sequence
For B1, the binding result in assay [1], in assay [2] and in assay [3] was “binds” each time.

B2: ZBTB2 (protein, UniProt Q8N680 1-514)
chain: T1 sequence
With B2, the binding entry in assay [1] and in assay [4] was “binds” in each case.

B3: ZNF639 (protein, UniProt Q9UID6 1-485)
chain: T2 sequence
Take B3: the binding result in assay [1] and in assay [4] was “binds” throughout.

The values above are taken from publication doi:10.1101/2025.01.24.634708.
